Reference: patent EP0589039A1, “[…] DERIVATIVE AND PHARMACEUTICAL PREPARATION CONTAINING THE SAME” (Asahi Kasei Kogyo Kabushiki Kaisha, priority 1991, dated 1992)
Where two headings read alike, the source gives them in different places.

Columns and labels:
[1] = system: osteoporosis model rats; experiment: Inhibition of decrease in bone density in ovariectomized osteoporosis model rats; assay type: in vivo, Fisher rats; details: left femur, D = W/V, 400 µg/kg orally once a day for 4 months
Procedure: Effect of the compound of the present invention to inhibit decrease in the bone density was evaluated using osteoporosis model rats. Of 32 Fisher rats of 7 months old, 24 were subjected to ovariectomy and then divided into 3 groups of 8 rats each; a first group was used as pathological group (Group P), a second group was used as Tamoxifen-administered group (Group T) and a third group was used as compound 1-administered group (Group S). The remaining 8 rats were subjected to sham operation and used as a control group (Group C). […] After completion of the administration, the left side femur of each rat was excised to measure its volume (V) and dry weight (W) to calculate a bone density (D) based on a formula, D = W/V [formula] . […]

[2] = system: human breast cancer cultured cell line ZR-75-1; experiment: Growth inhibition of human breast cancer cultured cell line ZR-75-1 (Methylene Blue staining); assay type: cell-based; details: 120 h, ZR-75-1, 10⁻⁹ mole of estrogen, 5 days, read-out: IC₅₀
Procedure: Effect of the triphenylalkene derivative of the present invention on breast cancer were examined using a human breast cancer cultured cell line ZR-75-1. Predetermined dilutions of each triphenylalkene derivative of the present invention were added to a 96 well microtiter plate purchased from Falcon, and the cancer cells were inoculated into each well with a inoculum size of 2 x 10³ cells per well. The thus prepared plate was supplied with RPMI 1640 medium which has been supplemented with 10% of fetal bovine serum and further with 10⁻⁹ mole of estrogen, and incubated at 37°C for 5 days in the presence of 5% CO₂. Thereafter, viable cells were fixed with glutaraldehyde, stained with Methylene Blue and then extracted with 0.33 N of hydrochloric acid to measure absorbance at 665 nm. A concentration which gives a value of 0.5 when an absorbance in a well containing no triphenylalkene derivative is taken as 1 was defined as IC₅₀, with the results shown in Table 3.

[3] = system: human breast cancer cell line MCF-7; experiment: Growth inhibition of human breast cancer cell MCF-7 (Methylene Blue staining); assay type: cell-based; details: read-out: Growth inhibition of MCF-7 (human breast cancer cells) (IC₅₀)
Procedure: (Growth inhibition of human breast cancer cell MCF-7)
Effect of the compound of the present invention on breast cancer were examined using a human breast cancer cell line MCF-7. Predetermined dilutions of each compound of the present invention were added to a 96 well microtiter plate purchased from Falcon, and the cancer cells were inoculated into each well with a inoculum size of 10³ cells per well (10⁴ cells in the case of 100 nM estrogen (E)). The thus prepared plate was supplied with RPMI 1640 medium which has been supplemented with 5% of fetal bovine serum and further with a predetermined amount of estrogen, and incubated at 37°C for 6 days (3 days in the case of 100 nM estrogen) in the presence of 5% CO₂. Thereafter, viable cells were fixed with glutaraldehyde and stained with Methylene Blue to measure absorbance at 665 nm.

IC50 [2]: 4 µM | IC50 ([3]; MCF7, 72 h, 100 nM added amount of E (estrogen), 3 days, 10⁴ cells per well): 6.4 µM | IC50 ([3]; MCF7, 144 h, 0.1 nM added amount of E (estrogen), 6 days): 1.85 µM
Compound: CC/C(=C(\c1ccccc1)c1ccc(OCCN(C)C)cc1)c1ccccc1 [Tamoxifen, (Z)-2-[4-(1,2-diphenyl-1-butenyl)phenoxy]-N,N-dimethylethylamine, reference compound]
Bone density [1]: 1.0214
